The whole screen tested about 330,000 compounds, of which about 7,700 (2.3%) were called active. This list was built around the results that the source calls inconclusive (neither active nor inactive); the mix of calls is not that of the screen. Calls follow the shape of the dose curve; as a rule, active = well fitted inhibition curve with a large enough effect; inconclusive = small, poorly fitted or top-dose-only effect, or effect the other way; inactive = flat fitted curve, though single readings scatter. A potency beside an inconclusive call is a rough fit, not a confirmed value.
Assay: qHTS screen for small molecules that inhibit ELG1-dependent DNA repair in human embryonic kidney (HEK293T) cells expressing luciferase-tagged ELG1; also: nearly all actives have a fitted effect of over 55% in size
Settings: HEK293T ELG1-luciferase reporter, luminescence, 16 h, DNA damage induced by 5-fluorouridine; activity change, negative = inhibition: at 46.1 µM (top of the series)
Summary of the method: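 Cells (2,000 per well) received 5-fluorouridine plus test compound or DMSO and were incubated 16 hr at 37 °C, 5% CO2. Luciferase activity was read by luminescence 30 min after ONE-Glo addition; signal suppression marked inhibition of damage-induced ELG1 function.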
% is scaled to controls: 0 for no effect and ±100 for the full control effect; potency is read from the fitted curve at half-maximal effect.

Row | SMILES | Potency | activity change, negative = inhibition
1 | CC(=O)Nc1ccc(S(=O)(=O)NCCS(=O)(=O)N2CCN(c3ccccc3)CC2)cc1 | inconclusive: 14.6 µM [inhibitor, single point] | –
2 | CC(C(=O)NC1(C#N)CCCCC1)N(C)CC(=O)Nc1ccc(Cl)c(Cl)c1 (stereo not given) | – | inactive: -19.6%
3 | CCCn1cnc2cc(NCc3cccs3)ccc21 | inconclusive: 18.3 µM [activator, partial curve] | –
4 | Cc1ccc(C2=NNC(C(O)C(O)C(O)C(O)CO)S2)cc1 (stereo not given) | inconclusive: 18.4 µM [activator, partial curve] | –
5 | Oc1ccc(-c2nc3c4c(ncn3n2)-c2ccccc2CC42CCCC2)cc1 | inconclusive: 29.1 µM [inhibitor, single point] | –
6 | CSc1nnc(C)c(/C=C/Nc2ccc(F)cc2F)n1 | – | inactive: -2.51%
7 | COc1cccc(NC(=O)N2CCC(NC(=O)c3ccco3)CC2)c1 | – | inactive: 5.29%
8 | O=C(Nc1cccc(F)c1)c1ccc(CSc2ccccc2)o1 | inconclusive: 16.4 µM [activator, partial curve] | –
9 | COc1cc(-c2nc3ccccc3s2)ccc1O | inconclusive: 16.4 µM [activator, partial curve] | –
10 | COc1ccc2c(c1)C(=O)[C@H](O)[C@@H](c1ccc(OC)c(Br)c1)O2 | – | inactive: -20.1%
11 | COc1ccc(CC(=O)Nc2ccc(-c3ccc4nnc(C)n4n3)cc2)cc1OC | inconclusive: 18.3 µM [activator, partial curve] | –
12 | Cn1cccc1/C=N/NC(=O)c1cc2ccccc2cc1O | inconclusive: 4.11 µM [activator, partial curve, poor fit] | –
13 | O=Cc1c(-c2ccc(F)cc2)nc2ccccn12 | inconclusive: 18.3 µM [activator, single point] | –
14 | COc1ccc(CC(=O)O/N=C(\N)c2ccccn2)cc1 | inconclusive: 2.59 µM [activator, partial curve, poor fit] | –
15 | Cc1ccsc1C(=O)OCc1cc(=O)n2ccsc2n1 | inconclusive: 11.6 µM [activator, partial curve, poor fit] | –
16 | CC(=O)c1ccc(NS(=O)(=O)c2ccc(CC(C)C)cc2)cc1 | – | inactive: 3.8%
17 | COc1cccc(Nc2ccc(C(=O)O)cc2[N+](=O)[O-])c1 | – | inactive: -0.0609%
18 | CC(C)c1nnc(NC(=O)c2ccc3ccccc3c2)s1 | inconclusive: 2.06 µM [activator, partial curve] | –
19 | Cc1nnc(SCC(=O)Nc2sccc2C(N)=O)n1Cc1ccccc1 | – | inactive: -0.596%
20 | Cc1ccc(C)c(NC(=O)c2cc(=O)c3ccccc3o2)c1 | inconclusive: 5.8 µM [activator, full curve, poor fit] | –
21 | COc1ccc(-c2nc3ccccc3s2)cc1 | inconclusive: 1.03 µM [activator, partial curve] | –
22 | O=[N+]([O-])c1ccn(-c2nc(-c3ccccc3)cc(C(F)(F)F)n2)n1 | inconclusive: 2.91 µM [inhibitor, partial curve, poor fit] | –
23 | COc1ccc(C)cc1NC(=O)CNC(c1ccccc1)c1ccc(C)cc1 (stereo not given) | active: 6.51 µM | –
24 | Cc1ccccc1Oc1cccc(C(=O)/C(C#N)=C/N(C)C)c1 | inconclusive: 23.1 µM [activator, partial curve] | –

One compound at a time, as listed above. Values in the order: Potency | activity change, negative = inhibition
CCCn1cnc2cc(NCc3cccs3)ccc21 in the list: inconclusive: 18.3 µM [activator, partial curve] | –
Cc1ccc(C2=NNC(C(O)C(O)C(O)C(O)CO)S2)cc1 (stereo not given) in the list: inconclusive: 18.4 µM [activator, partial curve] | –
O=[N+]([O-])c1ccn(-c2nc(-c3ccccc3)cc(C(F)(F)F)n2)n1 in the list: inconclusive: 2.91 µM [inhibitor, partial curve, poor fit] | –

The listing continues.

Row | SMILES | Potency | activity change, negative = inhibition
25 | Cc1ccc(C)c(OCCC(=O)NNC(=O)Cn2nc(C)cc2C)c1 | – | inactive: 1.4%
26 | O=C(Nc1cccc(NC(=O)c2cccs2)c1)c1ccc2c(c1)OCCO2 | – | inactive: 9.61%
27 | O=C1/C(=C\c2cccs2)N=C(c2cccs2)N1Nc1ccccc1 | inconclusive: 18.4 µM [inhibitor, single point] | –
28 | CC(=O)c1cccc(NC(=O)COc2nsnc2N2CCOCC2)c1 | inconclusive: 13 µM [inhibitor, partial curve] | –
29 | Oc1ccccc1-c1nnc(COc2ccccc2)o1 | inconclusive: 20.6 µM [activator, partial curve] | –
30 | Cc1ccc2c(C)c(C(=O)N(Cc3ccncc3)CC3CCCO3)oc2c1C (stereo not given) | – | inactive: -3.98%
31 | CN1/C(=C\C(=O)CN2C(=O)NC3(CCCCCC3)C2=O)C(C)(C)c2ccccc21 | inconclusive: 23.1 µM [inhibitor, single point] | –
32 | COc1ccccc1CNS(=O)(=O)c1cc(-c2cc(C)no2)ccc1C(C)C | inconclusive: 29.1 µM [inhibitor, single point] | –
33 | Cc1ccc(S(=O)(=O)N2CCN(Cc3nnc(-c4c(-c5ccccc5)noc4C)o3)CC2)cc1 | inconclusive: 10.3 µM [inhibitor, partial curve] | –
34 | CCOc1cc(C2/C(=C(/O)c3ccc(OC)cc3)C(=O)C(=O)N2CC2CCCO2)ccc1O (stereo not given) | – | inactive: -0.259%
35 | Cc1ccccc1NC(=O)/C(C#N)=C/c1ccc(-c2ccc(Cl)c(C(=O)O)c2)o1 | inconclusive: 23.1 µM [activator, partial curve] | –
36 | CSc1ccccc1NC(=O)CN1CCCCC1C (stereo not given) | – | inactive: 7%
37 | C=CCOC(=O)/C(=C/c1cccc2ccccc12)NC(=O)c1ccccc1 | inconclusive: 25.9 µM [activator, single point] | –
38 | CCN(Cc1ccncc1)C(=O)c1cc(COc2ccc(OC)cc2Cl)on1 | inconclusive: 9.2 µM [activator, partial curve] | –
39 | CC(=O)c1ccc(NC(=O)c2noc3c2CCCCC3)cc1 | inconclusive: 5.17 µM [activator, full curve] | –
40 | CC(C)n1c(C(=O)OCC(=O)NCc2ccc3c(c2)OCO3)cc2sccc21 | inconclusive: 32.6 µM [inhibitor, single point] | –
41 | O=C(NCc1cccs1)c1cc(S(=O)(=O)N2CCCCC2)ccc1Cl | inconclusive: 16.4 µM [inhibitor, single point] | –
42 | C=CCNc1nc(-c2ccc(OC)cc2OC)cs1 | inconclusive: 6.51 µM [activator, partial curve] | –
43 | Cc1cc(/C=C2/C(=O)NN(c3ccccc3)C2=O)c(C)n1-c1ccc(O)cc1 | inconclusive: 0.58 µM [activator, full curve] | –
44 | CC1CCN(C(=O)CSc2nc3ccccc3s2)CC1 | inconclusive: 14.6 µM [activator, partial curve] | –
45 | Cc1ccccc1NC(=O)C(Cc1ccccc1)n1cccc1 (stereo not given) | – | inactive: 3.72%
46 | Cc1c(Cl)c([N+](=O)[O-])nn1Cc1ccc(C(=O)Nc2ccc(Cl)cn2)o1 | inconclusive: 32.6 µM [inhibitor, single point] | –
47 | C#CCOCCOCCOCCNc1nc(N2CCN(C(=O)[C@H](CCCCN)n3cc([C@@H](N)CO)nn3)CC2)nc(N2CCN(C(=O)[C@H](Cc3cc4ccccc4[nH]3)n3cc([C@@H](N)CC(C)C)nn3)CC2)n1 | – | inactive: 14.4%
48 | CC1CCN(C(=O)CN(Cc2ccc(F)cc2)S(C)(=O)=O)CC1 | – | inactive: -0.676%

Row | SMILES | Potency | activity change, negative = inhibition
49 | COc1ccc(C2C(C(=O)c3cc4cccc(OC)c4o3)=C(O)C(=O)N2CCCN(C)C)cc1OC (stereo not given) | inconclusive: 29.1 µM [activator, single point] | –
50 | CCCCOCCCN1CC(=O)N2[C@@H](Cc3c([nH]c4ccccc34)C2(C)C)C1=O | active: 13 µM | –
51 | CN(C)c1ccc(C2NC(=O)c3ccccc3N2)cc1 (stereo not given) | inconclusive: 3.66 µM [activator, full curve] | –
52 | Cc1ccc(C)c(NCc2n[nH]c(=S)n2-c2ccccc2)c1 | – | inactive: 13.7%
53 | Cn1c2ccccc2c2n[nH]c(=S)nc21 | inconclusive: 29.1 µM [activator, single point] | –
54 | CCOc1ccc2nc(N3CCC(C(=O)NCCCN4CCOCC4)CC3)sc2c1 | inconclusive: 23.1 µM [activator, partial curve] | –
55 | COc1ccc(C(c2sc3ncnn3c2O)N2CC(C)OC(C)C2)cc1OC (stereo not given) | inconclusive: 18.4 µM [activator, single point] | –
56 | O=S(=O)(Nn1cnnc1)c1ccc(F)cc1 | – | inactive: 4.37%
57 | Cn1cnnc1SCc1cccc(Br)c1 | inconclusive: 18.4 µM [activator, partial curve] | –
58 | COc1ccc(/C=C(\NC(=O)c2ccccc2)C(=O)NCc2ccco2)cc1 | inconclusive: 29.1 µM [activator, single point] | –
59 | Cc1onc(-c2ccccc2Cl)c1C(=O)Oc1cc(N)n(S(=O)(=O)c2ccc(F)cc2)n1 | inconclusive: 11.6 µM [activator, partial curve] | –
60 | O=C(Cn1ncc2c3ccccc3n(Cc3ccccc3)c2c1=O)NCCCN1CCCC1 | inconclusive: 29.1 µM [activator, partial curve, poor fit] | –
61 | CCOC(=O)C1CCN(C(=O)c2sc3nc(C)nc(N4CCC(C)CC4)c3c2C)CC1 | active: 23.1 µM | –
62 | CCOC(=O)C1CSC2(CCC(c3ccccc3)CC2)N1 (stereo not given) | – | inactive: 12.1%
63 | CCN(CC)CCN1C2=C(C(=O)CC(C)(C)C2)C(c2cccc(F)c2)C2=C1CC(C)(C)CC2=O | – | inactive: 5.38%
64 | COc1cc(C(=O)OCC(=O)Nc2cc(C)on2)cc(OC)c1OC | inconclusive: 3.55 µM [activator, single point] | –
65 | CCCC(=O)Nc1nc(-c2ccccc2)c(CC)s1 | inconclusive: 23.1 µM [inhibitor, partial curve, poor fit] | –
66 | CN1CCN(C(=S)NCCc2ccccc2)CC1 | inconclusive: 25.9 µM [activator, single point] | –
67 | Cc1ccc(NCC(=O)N/N=C\C(Br)=C\c2ccccc2)cc1 | – | inactive: 12.2%
68 | Cc1ccsc1C1NC(=O)c2c(sc3c2CCN(C)C3)N1 (stereo not given) | inconclusive: 20.6 µM [activator, single point] | –
69 | Cn1c(C(=O)OC(C(=O)NC2CCCCC2)c2cccnc2)cc2sccc21 (stereo not given) | inconclusive: 18.4 µM [inhibitor, single point] | –
70 | CCCOc1ccc2nc(NC(=O)OC)[nH]c2c1 | inconclusive: 29.1 µM [activator, single point] | –

From PubChem BioAssay AID504467 (National Center for Advancing Translational Sciences (NCATS), 2011)
